PubChem BioAssay AID1259405, NCATS | 2018
Shown is an unselected part of about 50,000 reagents tested. About 4,000 of them (8%) were called active. 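Mouse siRNA library applied to hamster cells; one well for each siRNA.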 A number with no mark means an inactive call. The numbers tell different reagents against one gene apart.

Purpose: 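Mouse-designed siRNAs used to find CHO productivity engineering targets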 (primary screen)
Cells: Chinese hamster CHO-K1 ovary cells with stable secreted eGFP expression
Knock-down reagent: single siRNA against mouse genes, 0.8 pmol siRNA per well (2 µl of 400 nM stock)
Duration: 3 days
Measurement: 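Per-well intracellular GFP measured by laser scanning cytometry, plus viability from ATP luminescence, each relative to plate median of non-targeting control wells, in %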
Direction: GFP, % of control: higher = more GFP per well, higher productivity; viability (ATP), % of control: higher = more viable cells (more ATP)
Active means: 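a knock-down is called active if GFP reaches 120% or more of non-targeting control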

{"gene": "Hscb", "reagent": 1, "GFP, % of control": 55.7, "viability (ATP), % of control": 45}
{"gene": "Hscb", "reagent": 2, "GFP, % of control": 55.6, "viability (ATP), % of control": 89.3}
{"gene": "Hscb", "reagent": 3, "GFP, % of control": 49.1, "viability (ATP), % of control": 73.9}
{"gene": "Cst6", "reagent": 1, "GFP, % of control": 66.8, "viability (ATP), % of control": 70.6}
{"gene": "Cst6", "reagent": 2, "GFP, % of control": 67.4, "viability (ATP), % of control": 60.4}
{"gene": "Cst6", "reagent": 3, "GFP, % of control": 85.9, "viability (ATP), % of control": 66}
{"gene": "Usp38", "reagent": 1, "GFP, % of control": "136 (active)", "viability (ATP), % of control": 74.8}
{"gene": "Usp38", "reagent": 2, "GFP, % of control": 49.6, "viability (ATP), % of control": 43.3}
{"gene": "Usp38", "reagent": 3, "GFP, % of control": 45.9, "viability (ATP), % of control": 65.2}
{"gene": "Csf3r", "reagent": 1, "GFP, % of control": 108, "viability (ATP), % of control": 96.4}
{"gene": "Csf3r", "reagent": 2, "GFP, % of control": 50.3, "viability (ATP), % of control": 56.2}
{"gene": "Csf3r", "reagent": 3, "GFP, % of control": 71.1, "viability (ATP), % of control": 46.8}
{"gene": "Zfp276", "reagent": 1, "GFP, % of control": 56.1, "viability (ATP), % of control": 88.8}
{"gene": "Zfp276", "reagent": 2, "GFP, % of control": 71.7, "viability (ATP), % of control": 84.1}
{"gene": "Zfp276", "reagent": 3, "GFP, % of control": 99.9, "viability (ATP), % of control": 108}

Next part; the last 4 above are carried over.
{"gene": "Csf3r", "reagent": 3, "GFP, % of control": 71.1, "viability (ATP), % of control": 46.8}
{"gene": "Zfp276", "reagent": 1, "GFP, % of control": 56.1, "viability (ATP), % of control": 88.8}
{"gene": "Zfp276", "reagent": 2, "GFP, % of control": 71.7, "viability (ATP), % of control": 84.1}
{"gene": "Zfp276", "reagent": 3, "GFP, % of control": 99.9, "viability (ATP), % of control": 108}
{"gene": "Gm867", "reagent": 1, "GFP, % of control": 76.2, "viability (ATP), % of control": 77.2}
{"gene": "Gm867", "reagent": 2, "GFP, % of control": "133 (active)", "viability (ATP), % of control": 95.5}
{"gene": "Gm867", "reagent": 3, "GFP, % of control": 38.4, "viability (ATP), % of control": 73.3}
{"gene": "Ccdc54", "reagent": 1, "GFP, % of control": 72.5, "viability (ATP), % of control": 88.2}
{"gene": "Ccdc54", "reagent": 2, "GFP, % of control": 30.3, "viability (ATP), % of control": 77.4}
{"gene": "Ccdc54", "reagent": 3, "GFP, % of control": 104, "viability (ATP), % of control": 94.7}
{"gene": "Acsm1", "reagent": 1, "GFP, % of control": 108, "viability (ATP), % of control": 88.2}
{"gene": "Acsm1", "reagent": 2, "GFP, % of control": 115, "viability (ATP), % of control": 98.4}
{"gene": "Acsm1", "reagent": 3, "GFP, % of control": 94.1, "viability (ATP), % of control": 140}
{"gene": "Mettl2", "reagent": 1, "GFP, % of control": 91.9, "viability (ATP), % of control": 72.5}
{"gene": "Mettl2", "reagent": 2, "GFP, % of control": 45, "viability (ATP), % of control": 73.4}
{"gene": "Mettl2", "reagent": 3, "GFP, % of control": 99, "viability (ATP), % of control": 121}
{"gene": "Yif1b", "reagent": 1, "GFP, % of control": 102, "viability (ATP), % of control": 98.9}
{"gene": "Yif1b", "reagent": 2, "GFP, % of control": 46, "viability (ATP), % of control": 49.3}
{"gene": "Yif1b", "reagent": 3, "GFP, % of control": 104, "viability (ATP), % of control": 89.7}
{"gene": "Vmn1r72", "reagent": 1, "GFP, % of control": "133 (active)", "viability (ATP), % of control": 52.7}
{"gene": "Vmn1r72", "reagent": 2, "GFP, % of control": 49.6, "viability (ATP), % of control": 56.9}
{"gene": "Vmn1r72", "reagent": 3, "GFP, % of control": 53.6, "viability (ATP), % of control": 68.1}
{"gene": "C1qtnf2", "reagent": 1, "GFP, % of control": 40.7, "viability (ATP), % of control": 47.6}
{"gene": "C1qtnf2", "reagent": 2, "GFP, % of control": 86.9, "viability (ATP), % of control": 97.7}
{"gene": "C1qtnf2", "reagent": 3, "GFP, % of control": 65.9, "viability (ATP), % of control": 61.4}
{"gene": "Foxd4", "reagent": 1, "GFP, % of control": 25.6, "viability (ATP), % of control": 36.9}
{"gene": "Foxd4", "reagent": 2, "GFP, % of control": 73.2, "viability (ATP), % of control": 83.3}
{"gene": "Map2", "reagent": 1, "GFP, % of control": 88.6, "viability (ATP), % of control": 86.3}
{"gene": "Map2", "reagent": 2, "GFP, % of control": 48.6, "viability (ATP), % of control": 53.8}
